Experimental data: doi:10.1101/2022.11.10.515973
No constants are given. Whether binding was seen depends on the method and setting. In cells and extracts the contact can be indirect. Binding calls can cover weak binding; strength is not graded here.

By UniProt entry, the sequences of proteins in these tests, tags left out. Where a name states a change or a piece, a line headed by the entry shows the natural chain unless it says otherwise.
UniProt Q39204: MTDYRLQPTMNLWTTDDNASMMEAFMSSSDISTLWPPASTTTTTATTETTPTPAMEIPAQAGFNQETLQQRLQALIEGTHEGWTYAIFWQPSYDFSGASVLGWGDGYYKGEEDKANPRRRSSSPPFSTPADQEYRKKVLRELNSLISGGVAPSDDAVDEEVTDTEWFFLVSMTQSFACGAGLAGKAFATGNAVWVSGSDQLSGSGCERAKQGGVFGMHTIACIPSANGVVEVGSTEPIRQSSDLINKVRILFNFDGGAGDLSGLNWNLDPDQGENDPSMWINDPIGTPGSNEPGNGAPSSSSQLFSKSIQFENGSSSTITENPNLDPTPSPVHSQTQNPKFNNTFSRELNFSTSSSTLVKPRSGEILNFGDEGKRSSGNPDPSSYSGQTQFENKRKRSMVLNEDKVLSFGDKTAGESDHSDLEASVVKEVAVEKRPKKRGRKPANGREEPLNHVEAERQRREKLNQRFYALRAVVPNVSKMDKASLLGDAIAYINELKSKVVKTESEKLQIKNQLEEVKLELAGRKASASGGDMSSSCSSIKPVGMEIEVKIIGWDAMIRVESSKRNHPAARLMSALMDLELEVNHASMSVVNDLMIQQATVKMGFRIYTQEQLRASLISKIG
UniProt Q9MAT6: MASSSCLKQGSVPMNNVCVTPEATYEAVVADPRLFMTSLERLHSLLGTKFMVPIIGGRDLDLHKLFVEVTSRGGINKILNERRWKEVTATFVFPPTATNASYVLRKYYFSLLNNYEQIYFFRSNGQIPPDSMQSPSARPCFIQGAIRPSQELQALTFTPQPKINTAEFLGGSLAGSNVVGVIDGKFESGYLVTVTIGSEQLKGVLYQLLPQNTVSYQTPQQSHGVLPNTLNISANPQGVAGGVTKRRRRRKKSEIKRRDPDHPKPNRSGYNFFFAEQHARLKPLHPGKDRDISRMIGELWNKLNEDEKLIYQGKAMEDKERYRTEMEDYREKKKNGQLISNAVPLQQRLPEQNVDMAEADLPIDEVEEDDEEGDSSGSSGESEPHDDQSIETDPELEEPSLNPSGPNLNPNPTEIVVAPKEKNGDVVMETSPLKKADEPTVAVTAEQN

Molecular target: MYC2 (Arabidopsis thaliana) (UniProt Q39204)
Experiment: split reporter

AtHMGB15 (from UniProt Q9MAT6)
binding: binds
